Assay results taken from patent US20220265715A1 (EUREKA THERAPEUTICS, published 2022).

Target: T1, biotinylated AFP158/HLA-A*02:01 tetramer (human, biotinylated via the BSP peptide linked to the C-terminal end of the HLA-A*02:01 extracellular domain)
T1 construct: also called AFP158 tetramer; not shown: BSP peptide (BirA biotinylation site) at the C-terminus
Assay: flow cytometry, AFP158/HLA-A*02:01 tetramer staining of CAR-transduced T cells

binding result | Binder
binds | Anti-AFP-CD8T-41BBz-CAR (other, Chimeric antigen receptor on transduced primary human T cells: anti-AFP/MHC scFv, myc tag, CD8 TM, 4-1BB costimulatory domain, CD3zeta; also called αAFP -CD8T-41BBz CAR) QSVLTQPASVSGSPGQSITISCTGTSSDVGGYNYVSWYQQHPGKAPKLMIYDVNNRPSEVSNRFSGSKSGNTASLTISGLQAEDEADYYCSSYTTGSRAVFGGGTKLTVLGSRGGGGSGGGGSGGGGSLEMAEVQLVQSGAEVKKPGESLTISCKASGYSFPNYWITWVRQMSGGGLEWMGRIDPGDSYTTYNPSFQGHVTISIDKSTNTAYLHWNSLKASDTAMYYCARYYVSLVDIWGQGTLVTVSSEQKLISEEDLTGTTTPAPRPPTPAPTIASQPLSLRPEACRPAAGGAVHTRGLDFACDIYIWAPLAGTCGVLLLSLVITLYCKRGRKKLLYIFKQPFMRPVQTTQEEDGCSCRFPEEEEGGCELRVKFSRSADAPAYQQGQNQLYNELNLGRREEYDVLDKRRGRDPEMGGKPRRKNPQEGLYNELQKDKMAEAYSEIGMKGERRRGKGHDGLYQGLSTATKDTYDALHMQALPPR
binds | Anti-AFP-CD8T-CD30z-CAR (other, Chimeric antigen receptor on transduced primary human T cells: anti-AFP/MHC scFv, myc tag, CD8 TM, CD30 costimulatory domain, CD3zeta; also called αAFP -CD8T-CD30z CAR) QSVLTQPASVSGSPGQSITISCTGTSSDVGGYNYVSWYQQHPGKAPKLMIYDVNNRPSEVSNRFSGSKSGNTASLTISGLQAEDEADYYCSSYTTGSRAVFGGGTKLTVLGSRGGGGSGGGGSGGGGSLEMAEVQLVQSGAEVKKPGESLTISCKASGYSFPNYWITWVRQMSGGGLEWMGRIDPGDSYTTYNPSFQGHVTISIDKSTNTAYLHWNSLKASDTAMYYCARYYVSLVDIWGQGTLVTVSSEQKLISEEDLAAATGTTTPAPRPPTPAPTIASQPLSLRPEACRPAAGGAVHTRGLDFACDIYIWAPLAGTCGVLLLSLVITLYCHRRACRKRIRQKLHLCYPVQTSQPKLELVDSRPRRSSTQLRSGASVTEPVAEERGLMSQPLMETCHSVGAAYLESLPLQDASPAGGPSSPRDLPEPRVSTEHTNNKIEKIYIMKADTVIVGTVKAELPEGRGLAGPAEPELEEELEADHTPHYPEQETEPPLGSCSDVMLSVEEEGKEDPLPTAASGKRVKFSRSADAPAYQQGQNQLYNELNLGRREEYDVLDKRRGRDPEMGGKPRRKNPQEGLYNELQKDKMAEAYSEIGMKGERRRGKGHDGLYQGLSTATKDTYDALHMQALPPR
